According to PubChem BioAssay AID256 (DTP/NCI, 2004):
The list shows only some results of the screen, not a fair sample: it gathers tests that were run many times, whatever their T/C, doses with no T/C, and many T/C values between a quarter and a half above the control. Other doses and runs of a compound stand elsewhere. T/C gives the treated animals as a percentage of the vehicle group. Some doses have a count of surviving animals in place of a T/C: the source files T/C as zero there, which appears to mark a toxic dose or a test without result, not a measured value. Some doses without a T/C left all or most animals alive at the check, yet need not have been tolerated: the source hardly ever lists a survival T/C far under the control, and the zero likely stands for such cases as well. Survivors were counted at the toxicity check, usually on the fifth day, unless a day is given; later deaths do not show. Schedule codes are those of the source, taken here to give the interval after Q, in days (D) or hours (H), and the number of doses after X. Some entries hold several experiments; their values stand side by side, smallest first. Some schedules carry Z or #; the key to these is not given. For survival time, the PubChem record calls one and a half times the control and up active, and a quarter to a half above the control has no call in these data; cut-offs in other NCI protocols can differ. Some T/C values carry the count of animals alive at the toxicity check (mostly the fifth day); without a count, all were alive then.

Tested on: CD2F1 mice, L1210 leukemia ip, survival T/C
Assay: NCI In Vivo Anticancer Drug Screen. Data for tumor model L1210 Leukemia (intraperitoneal) in CD2F1 (CDF1) mice
Details: higher T/C = longer survival
Method in brief: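 Transplantable tumor in mice; compound-treated vs vehicle-treated groups. Read-out = treated/control ratio of the measured endpoint.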

[1] = T/C endpoint: mean survival time, dose: 400.0 mg/kg/injection, schedule: Q01DX001 (ip), vehicle: saline with Tween-80
[2] = T/C endpoint: mean survival time, dose: 200.0 mg/kg/injection, schedule: Q01DX001 (ip), vehicle: saline
[3] = T/C endpoint: mean survival time, dose: 400.0 mg/kg/injection, schedule: Q01DX001 (ip), vehicle: saline
[4] = T/C endpoint: mean survival time, dose: 100.0 mg/kg/injection, schedule: Q01DX001 (ip), vehicle: saline

SMILES: Cc1c2c(O)c(O)c(O)cc2c[n+]2ccccc12
- survivor count (T/C endpoint: mean survival time, dose: 100.0 mg/kg/injection, schedule: Q01DX009 (ip), vehicle: saline): 0 of 3
- survivor count (T/C endpoint: mean survival time, dose: 200.0 mg/kg/injection, schedule: Q01DX009 (ip), vehicle: saline): 0 of 3

SMILES: CC(=O)[C@]1(O)Cc2c(O)c3c(c(O)c2[C@@H](OC2CC(N)C(O)C(C)O2)C1)C(=O)c1c(O)cccc1C3=O (some centres undefined)
- T/C (T/C endpoint: mean survival time, dose: 0.14 mg/kg/injection, schedule: Q01DX009 (ip), vehicle: saline): 132 % of control
- T/C (T/C endpoint: mean survival time, dose: 0.23 mg/kg/injection, schedule: Q01DX009 (ip), vehicle: saline): 129 % of control
- T/C (T/C endpoint: mean survival time, dose: 0.39 mg/kg/injection, schedule: Q04DX003 (ip), vehicle: saline): 140 % of control
- T/C (T/C endpoint: mean survival time, dose: 0.65 mg/kg/injection, schedule: Q04DX003 (ip), vehicle: saline): 128 % of control
- T/C (T/C endpoint: mean survival time, dose: 1.08 mg/kg/injection, schedule: Q04DX003 (ip), vehicle: saline): 139 % of control

SMILES: O=C(O)C1C2c3cccc4cccc(c34)C12 (centres undefined)
- survivor count (T/C endpoint: mean survival time, dose: 400.0 mg/kg/injection, schedule: Q04DX003 (ip), vehicle: saline with Tween-80): 6 of 6

SMILES: CN(C)N=Nc1ccc(NC=O)cc1
- T/C (T/C endpoint: mean survival time, dose: 18.75 mg/kg/injection, schedule: Q01DX009 (ip), vehicle: Klucel (hydroxypropylcellulose) (HPC)): 125, 127, 131 % of control
- survivor count (T/C endpoint: mean survival time, dose: 37.5 mg/kg/injection, schedule: Q01DX009 (ip), vehicle: Klucel (hydroxypropylcellulose) (HPC)): 1 of 6
- survivor count (T/C endpoint: mean survival time, dose: 75.0 mg/kg/injection, schedule: Q01DX009 (ip), vehicle: Klucel (hydroxypropylcellulose) (HPC)): 0 of 6
- survivor count (T/C endpoint: mean survival time, dose: 150.0 mg/kg/injection, schedule: Q01DX009 (ip), vehicle: Klucel (hydroxypropylcellulose) (HPC)): 0 of 6
- survivor count (T/C endpoint: mean survival time, dose: 300.0 mg/kg/injection, schedule: Q01DX009 (ip), vehicle: Klucel (hydroxypropylcellulose) (HPC)): 0 of 6

SMILES: Cc1nn(CCO)c(C)c1N=[N+]([O-])c1c(C)nn(CCO)c1C
- survivor count (T/C endpoint: mean survival time, dose: 100.0 mg/kg/injection, schedule: Q01DX009 (ip), vehicle: saline with Tween-80): 4 of 6
- survivor count (T/C endpoint: mean survival time, dose: 200.0 mg/kg/injection, schedule: Q04DX003 (ip), vehicle: Klucel (hydroxypropylcellulose) (HPC)): 0 of 3

SMILES: CCCCCC(O)C(C)C (centres undefined)
- survivor count (T/C endpoint: mean survival time, dose: 300.0 mg/kg/injection, schedule: Q01DX001 (ip), vehicle: saline): 1 of 6

SMILES: CC[C@]12CN3CCc4c([nH]c5ccccc45)[C@@](C(=O)OC)(c4cc5c(cc4OC)N(C)[C@H]4[C@@](O)(C(=O)OC)[C@H](OC(C)=O)[C@]6(CC)C=CCN7CC[C@]54[C@@H]76)CC(C3)[C@H]1O2 (some centres undefined)
- T/C (T/C endpoint: mean survival time, dose: 6.25 mg/kg/injection, schedule: Q01DX009 (ip), vehicle: saline): 129 % of control [5 of 6 alive]
- survivor count (T/C endpoint: mean survival time, dose: 12.5 mg/kg/injection, schedule: Q01DX009 (ip), vehicle: saline): 4 of 6
- survivor count (T/C endpoint: mean survival time, dose: 25.0 mg/kg/injection, schedule: Q01DX009 (ip), vehicle: saline): 1 of 6
- T/C (T/C endpoint: mean survival time, dose: 25.0 mg/kg/injection, schedule: Q04DX003 (ip), vehicle: saline): 132 % of control
- survivor count (T/C endpoint: mean survival time, dose: 100.0 mg/kg/injection, schedule: Q04DX003 (ip), vehicle: saline): 0 of 6
- survivor count (T/C endpoint: mean survival time, dose: 200.0 mg/kg/injection, schedule: Q04DX003 (ip), vehicle: saline): 0 of 6
- survivor count (T/C endpoint: mean survival time, dose: 400.0 mg/kg/injection, schedule: Q04DX003 (ip), vehicle: saline): 0 of 6
- T/C (T/C endpoint: median survival time, dose: 4.0 mg/kg/injection, schedule: Q03HX008 (ip), vehicle: saline): 140 % of control
- T/C (T/C endpoint: median survival time, dose: 4.0 mg/kg/injection, schedule: Q03HX016 (ip), vehicle: saline): 125 % of control [8 of 10 alive]
- T/C (T/C endpoint: median survival time, dose: 4.0 mg/kg/injection, schedule: Q03HX024 (ip), vehicle: saline): 130 % of control
- T/C (T/C endpoint: median survival time, dose: 8.0 mg/kg/injection, schedule: Q01DX009 (ip), vehicle: saline): 125 % of control
- survivor count (T/C endpoint: median survival time, dose: 8.0 mg/kg/injection, schedule: Q03HX008 (ip), vehicle: saline): 3 of 10
- survivor count (T/C endpoint: median survival time, dose: 8.0 mg/kg/injection, schedule: Q03HX016 (ip), vehicle: saline): 5 of 10
- survivor count (T/C endpoint: median survival time, dose: 8.0 mg/kg/injection, schedule: Q03HX024 (ip), vehicle: saline): 5 of 10
- T/C (T/C endpoint: median survival time, dose: 16.0 mg/kg/injection, schedule: Q04DX003 (ip), vehicle: saline): 130 % of control
- survivor count (T/C endpoint: median survival time, dose: 32.0 mg/kg/injection, schedule: Q01DX009 (ip), vehicle: saline): 5 of 10
- T/C (T/C endpoint: median survival time, dose: 32.0 mg/kg/injection, schedule: Q04DX003 (ip), vehicle: saline): 130 % of control
- T/C (T/C endpoint: median survival time, dose: 32.0 mg/kg/injection, schedule: Q08DX002 (ip), vehicle: saline): 125 % of control
- T/C (T/C endpoint: median survival time, dose: 64.0 mg/kg/injection, schedule: Q01DX001 (ip), vehicle: saline): 125 % of control
- survivor count (T/C endpoint: median survival time, dose: 64.0 mg/kg/injection, schedule: Q08DX002 (ip), vehicle: saline): 6 of 10

SMILES: O=C(c1ccccc1)c1ccsc1C(=O)O
- survivor count (T/C endpoint: mean survival time, dose: 100.0 mg/kg/injection, schedule: Q04DX002 (ip), vehicle: saline with Tween-80): 1 of 3

SMILES: CCCCCCCCCCCCOP(OCC)OCCCCCCCCCCCC
- survivor count (T/C endpoint: mean survival time, dose: 200.0 mg/kg/injection, schedule: Q04DX002 (ip), vehicle: saline with Tween-80): 0 of 3
- survivor count (T/C endpoint: mean survival time, dose: 400.0 mg/kg/injection, schedule: Q04DX002 (ip), vehicle: saline with Tween-80): 2 of 3

SMILES: CCCCNCCC(=O)c1ccc(Cl)cc1
- survivor count (T/C endpoint: mean survival time, dose: 100.0 mg/kg/injection, schedule: Q01DX009 (ip), vehicle: saline sonified): 1 of 6
- survivor count (T/C endpoint: mean survival time, dose: 100.0 mg/kg/injection, schedule: Q04DX003 (ip), vehicle: saline with Tween-80): 2 of 6
- survivor count (T/C endpoint: mean survival time, dose: 200.0 mg/kg/injection, schedule: Q01DX009 (ip), vehicle: saline sonified): 0 of 6
- survivor count (T/C endpoint: mean survival time, dose: 400.0 mg/kg/injection, schedule: Q01DX009 (ip), vehicle: saline sonified): 0 of 6

SMILES: CN=C(NC)c1ccc(NC(=O)c2ccc(C(=O)Nc3ccc(C(=NC)NC)cc3)c(N)c2)cc1
- survivor count (T/C endpoint: mean survival time, dose: 72.0 mg/kg/injection, schedule: Q01DX Z (ip), vehicle: water): 1 of 6
- survivor count (T/C endpoint: mean survival time, dose: 144.0 mg/kg/injection, schedule: Q01DX Z (ip), vehicle: water): 0 of 6

SMILES: O=C(CCC(=O)Nc1ccc(S(=O)(=O)NCCO)cc1)Nc1ccc(S(=O)(=O)NCCO)cc1
- survivor count (T/C endpoint: mean survival time, dose: 100.0 mg/kg/injection, schedule: Q01DX001 (ip), vehicle: saline with Tween-80): 5 of 6
- survivor count (T/C endpoint: mean survival time, dose: 200.0 mg/kg/injection, schedule: Q01DX001 (ip), vehicle: saline with Tween-80): 6 of 6
- survivor count [1]: 6 of 6

SMILES: c1ccc(N=Nn2c3ccccc3c3ccccc32)cc1
- T/C [1]: 126 % of control

SMILES: O=[N+]([O-])c1ccc(C[N+]23CCN(CC2)CC3)cc1
- survivor count [1]: 3 of 6

SMILES: CC(C)=CBr
- survivor count (T/C endpoint: mean survival time, dose: 400.0 mg/kg/injection, schedule: Q04DX003 (ip), vehicle: acetone): 4 of 6

SMILES: O=P(Oc1ccc(OP(=O)(N2CC2)N2CC2)cc1)(N1CC1)N1CC1
- T/C (T/C endpoint: mean survival time, dose: 88.0 mg/kg/injection, schedule: Q01DX001 (ip), vehicle: saline): 136 % of control

SMILES: NNC(=O)CNc1cccc(Br)c1
- survivor count (T/C endpoint: mean survival time, dose: 400.0 mg/kg/injection, schedule: Q01DX001 (ip), vehicle: Klucel (hydroxypropylcellulose) (HPC)): 1 of 6

SMILES: COc1cc([N+](=O)[O-])c2nc(/C=N/NC(N)=S)ccc2c1
- survivor count [2]: 6 of 6
- survivor count [3]: 6 of 6

SMILES: O=c1ccn(C2OC(CO)C(O)C2O)c(=O)[n]1[Hg][c]1ccccc1 (centres undefined)
- T/C (T/C endpoint: median survival time, dose: 0.79 mg/kg/injection, schedule: Q01DX005 (ip), vehicle: saline): 128 % of control
- T/C (T/C endpoint: median survival time, dose: 1.56 mg/kg/injection, schedule: Q01DX005 (ip), vehicle: saline): 131 % of control
- survivor count (T/C endpoint: median survival time, dose: 12.5 mg/kg/injection, schedule: Q01DX005 (ip), vehicle: saline): 0 of 6 and 3 of 6

SMILES: Cc1scc[n+]1Cc1ccccc1[N+](=O)[O-]
- survivor count [4]: 2 of 6
- survivor count [2]: 0 of 6
- survivor count [3]: 0 of 6

SMILES: CC(C)(C)OC(=O)CSC#N
- survivor count [4]: 0 of 4
- survivor count [2]: 0 of 4
- survivor count [3]: 0 of 4
